Data as given in the supplement of paper PMC12595434, “Development of retinoid nuclear receptor pathway antagonists through targeting aldehyde dehydrogenase 1A3” (iScience, 2025).
The other results are listed elsewhere or left out. Single values of this set are uncertain.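 Tm was set to 64 °C where no melting was found, and many curves are irregular.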

Protein sequences, listed by entry. Tags and fused reporters are not part of them. Lines headed by an entry give the natural chain unless they say otherwise; changes in a name come on top.
UniProt P67870, whole entry: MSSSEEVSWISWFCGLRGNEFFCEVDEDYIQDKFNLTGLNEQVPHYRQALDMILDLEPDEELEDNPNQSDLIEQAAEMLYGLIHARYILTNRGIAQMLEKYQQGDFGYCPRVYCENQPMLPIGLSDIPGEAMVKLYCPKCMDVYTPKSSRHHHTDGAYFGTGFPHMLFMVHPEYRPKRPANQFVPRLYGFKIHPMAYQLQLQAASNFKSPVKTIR
UniProt P51970, whole entry: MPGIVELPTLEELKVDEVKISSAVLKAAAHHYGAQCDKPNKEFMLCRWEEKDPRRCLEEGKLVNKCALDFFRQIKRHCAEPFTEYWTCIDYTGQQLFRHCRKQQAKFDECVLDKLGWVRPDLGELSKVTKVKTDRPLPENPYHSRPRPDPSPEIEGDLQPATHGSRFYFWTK
UniProt P54802: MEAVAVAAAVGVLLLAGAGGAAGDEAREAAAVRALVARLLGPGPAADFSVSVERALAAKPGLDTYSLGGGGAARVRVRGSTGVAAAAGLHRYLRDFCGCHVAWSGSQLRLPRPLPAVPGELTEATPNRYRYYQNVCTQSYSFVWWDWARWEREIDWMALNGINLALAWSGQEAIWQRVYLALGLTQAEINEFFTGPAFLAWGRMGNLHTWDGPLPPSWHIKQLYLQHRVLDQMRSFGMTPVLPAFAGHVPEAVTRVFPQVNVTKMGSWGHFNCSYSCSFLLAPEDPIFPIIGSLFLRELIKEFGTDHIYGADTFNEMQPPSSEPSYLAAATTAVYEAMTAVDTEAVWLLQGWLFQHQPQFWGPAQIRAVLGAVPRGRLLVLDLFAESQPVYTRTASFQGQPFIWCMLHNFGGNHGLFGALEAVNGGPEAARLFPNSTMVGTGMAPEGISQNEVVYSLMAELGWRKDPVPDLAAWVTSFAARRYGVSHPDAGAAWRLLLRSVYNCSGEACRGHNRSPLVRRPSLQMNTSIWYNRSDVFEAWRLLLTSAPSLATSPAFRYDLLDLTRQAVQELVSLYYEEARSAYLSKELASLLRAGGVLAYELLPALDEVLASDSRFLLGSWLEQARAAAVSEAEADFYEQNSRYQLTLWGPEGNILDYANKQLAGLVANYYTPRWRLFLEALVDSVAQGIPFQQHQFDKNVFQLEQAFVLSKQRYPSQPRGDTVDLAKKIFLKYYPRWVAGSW
UniProt P67775, whole entry: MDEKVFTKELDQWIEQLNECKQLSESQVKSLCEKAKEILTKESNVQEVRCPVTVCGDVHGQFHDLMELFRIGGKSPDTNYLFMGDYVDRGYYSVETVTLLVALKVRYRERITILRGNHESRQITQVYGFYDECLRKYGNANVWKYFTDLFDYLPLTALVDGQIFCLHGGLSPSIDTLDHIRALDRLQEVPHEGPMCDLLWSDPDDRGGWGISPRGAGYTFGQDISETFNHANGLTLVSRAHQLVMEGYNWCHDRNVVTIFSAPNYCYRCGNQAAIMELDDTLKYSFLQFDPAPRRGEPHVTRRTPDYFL
UniProt P62699: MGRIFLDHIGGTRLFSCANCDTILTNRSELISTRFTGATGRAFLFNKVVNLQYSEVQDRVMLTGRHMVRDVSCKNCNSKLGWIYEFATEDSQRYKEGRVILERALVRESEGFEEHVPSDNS
UniProt P63172, whole entry: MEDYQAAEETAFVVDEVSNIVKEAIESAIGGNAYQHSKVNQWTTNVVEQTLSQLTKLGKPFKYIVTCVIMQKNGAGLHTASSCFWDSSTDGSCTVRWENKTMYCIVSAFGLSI
UniProt P52732: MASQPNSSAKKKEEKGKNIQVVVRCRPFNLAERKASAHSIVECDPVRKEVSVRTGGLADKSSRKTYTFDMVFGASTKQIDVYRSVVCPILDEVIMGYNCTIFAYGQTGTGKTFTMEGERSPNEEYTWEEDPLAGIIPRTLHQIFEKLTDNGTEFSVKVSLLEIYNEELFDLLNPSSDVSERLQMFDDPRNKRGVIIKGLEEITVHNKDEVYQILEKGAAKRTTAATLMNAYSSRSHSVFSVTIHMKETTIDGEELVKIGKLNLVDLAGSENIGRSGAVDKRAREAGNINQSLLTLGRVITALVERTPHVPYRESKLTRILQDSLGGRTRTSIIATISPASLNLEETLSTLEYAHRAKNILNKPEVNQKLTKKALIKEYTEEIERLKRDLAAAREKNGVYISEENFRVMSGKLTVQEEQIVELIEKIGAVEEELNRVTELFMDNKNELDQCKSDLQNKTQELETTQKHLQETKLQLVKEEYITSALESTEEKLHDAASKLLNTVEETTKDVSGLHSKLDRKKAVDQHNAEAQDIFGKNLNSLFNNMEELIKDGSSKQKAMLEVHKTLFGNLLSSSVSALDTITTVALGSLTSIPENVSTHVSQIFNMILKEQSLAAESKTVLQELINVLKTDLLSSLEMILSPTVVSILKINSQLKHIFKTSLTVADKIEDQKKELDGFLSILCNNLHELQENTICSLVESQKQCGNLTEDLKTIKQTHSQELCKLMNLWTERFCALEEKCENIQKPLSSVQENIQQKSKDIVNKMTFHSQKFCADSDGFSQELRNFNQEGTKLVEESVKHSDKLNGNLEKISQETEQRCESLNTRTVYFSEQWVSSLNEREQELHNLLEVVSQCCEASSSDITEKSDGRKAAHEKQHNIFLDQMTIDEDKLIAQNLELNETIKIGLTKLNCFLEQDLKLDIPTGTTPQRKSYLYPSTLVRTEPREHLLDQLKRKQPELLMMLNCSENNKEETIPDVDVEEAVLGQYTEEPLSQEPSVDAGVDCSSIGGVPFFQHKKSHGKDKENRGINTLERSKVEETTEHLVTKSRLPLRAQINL
UniProt P63027, whole entry: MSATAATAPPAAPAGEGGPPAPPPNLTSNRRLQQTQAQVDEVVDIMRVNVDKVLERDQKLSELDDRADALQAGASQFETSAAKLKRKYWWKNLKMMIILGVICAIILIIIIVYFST
UniProt P62253: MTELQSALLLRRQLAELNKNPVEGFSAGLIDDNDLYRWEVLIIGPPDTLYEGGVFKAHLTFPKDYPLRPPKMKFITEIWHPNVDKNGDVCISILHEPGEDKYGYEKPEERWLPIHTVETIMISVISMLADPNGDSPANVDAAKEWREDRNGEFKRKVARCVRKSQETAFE
UniProt P52747: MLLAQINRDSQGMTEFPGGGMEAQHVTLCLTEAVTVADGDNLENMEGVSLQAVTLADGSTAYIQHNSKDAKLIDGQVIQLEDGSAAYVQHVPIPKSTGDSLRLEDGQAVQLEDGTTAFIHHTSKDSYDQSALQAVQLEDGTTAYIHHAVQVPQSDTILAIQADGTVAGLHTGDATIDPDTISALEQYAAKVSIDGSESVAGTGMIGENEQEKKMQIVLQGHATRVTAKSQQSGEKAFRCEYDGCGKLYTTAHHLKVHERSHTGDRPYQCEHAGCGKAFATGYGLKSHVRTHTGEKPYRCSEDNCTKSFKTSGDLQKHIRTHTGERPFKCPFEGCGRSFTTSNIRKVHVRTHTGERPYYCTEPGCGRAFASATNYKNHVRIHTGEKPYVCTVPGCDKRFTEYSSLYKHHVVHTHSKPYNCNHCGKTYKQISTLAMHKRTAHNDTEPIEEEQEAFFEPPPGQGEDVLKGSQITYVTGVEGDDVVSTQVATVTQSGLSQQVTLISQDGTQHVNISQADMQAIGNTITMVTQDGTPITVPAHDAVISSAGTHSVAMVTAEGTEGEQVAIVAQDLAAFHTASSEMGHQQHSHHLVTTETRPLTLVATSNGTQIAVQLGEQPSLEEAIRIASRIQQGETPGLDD
UniProt P54252: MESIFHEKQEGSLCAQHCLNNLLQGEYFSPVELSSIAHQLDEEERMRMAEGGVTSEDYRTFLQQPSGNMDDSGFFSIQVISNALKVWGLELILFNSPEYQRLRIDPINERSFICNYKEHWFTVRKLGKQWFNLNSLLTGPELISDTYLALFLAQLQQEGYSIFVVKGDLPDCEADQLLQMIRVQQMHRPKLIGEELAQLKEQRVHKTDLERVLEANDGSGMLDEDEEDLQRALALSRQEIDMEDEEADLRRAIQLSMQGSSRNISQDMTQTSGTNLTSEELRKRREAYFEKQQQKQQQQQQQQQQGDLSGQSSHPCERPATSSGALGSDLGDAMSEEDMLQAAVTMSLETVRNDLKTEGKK
UniProt P62306, whole entry, looked up: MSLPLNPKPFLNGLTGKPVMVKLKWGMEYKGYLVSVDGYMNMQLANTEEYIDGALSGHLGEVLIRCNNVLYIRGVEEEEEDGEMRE
UniProt P55265: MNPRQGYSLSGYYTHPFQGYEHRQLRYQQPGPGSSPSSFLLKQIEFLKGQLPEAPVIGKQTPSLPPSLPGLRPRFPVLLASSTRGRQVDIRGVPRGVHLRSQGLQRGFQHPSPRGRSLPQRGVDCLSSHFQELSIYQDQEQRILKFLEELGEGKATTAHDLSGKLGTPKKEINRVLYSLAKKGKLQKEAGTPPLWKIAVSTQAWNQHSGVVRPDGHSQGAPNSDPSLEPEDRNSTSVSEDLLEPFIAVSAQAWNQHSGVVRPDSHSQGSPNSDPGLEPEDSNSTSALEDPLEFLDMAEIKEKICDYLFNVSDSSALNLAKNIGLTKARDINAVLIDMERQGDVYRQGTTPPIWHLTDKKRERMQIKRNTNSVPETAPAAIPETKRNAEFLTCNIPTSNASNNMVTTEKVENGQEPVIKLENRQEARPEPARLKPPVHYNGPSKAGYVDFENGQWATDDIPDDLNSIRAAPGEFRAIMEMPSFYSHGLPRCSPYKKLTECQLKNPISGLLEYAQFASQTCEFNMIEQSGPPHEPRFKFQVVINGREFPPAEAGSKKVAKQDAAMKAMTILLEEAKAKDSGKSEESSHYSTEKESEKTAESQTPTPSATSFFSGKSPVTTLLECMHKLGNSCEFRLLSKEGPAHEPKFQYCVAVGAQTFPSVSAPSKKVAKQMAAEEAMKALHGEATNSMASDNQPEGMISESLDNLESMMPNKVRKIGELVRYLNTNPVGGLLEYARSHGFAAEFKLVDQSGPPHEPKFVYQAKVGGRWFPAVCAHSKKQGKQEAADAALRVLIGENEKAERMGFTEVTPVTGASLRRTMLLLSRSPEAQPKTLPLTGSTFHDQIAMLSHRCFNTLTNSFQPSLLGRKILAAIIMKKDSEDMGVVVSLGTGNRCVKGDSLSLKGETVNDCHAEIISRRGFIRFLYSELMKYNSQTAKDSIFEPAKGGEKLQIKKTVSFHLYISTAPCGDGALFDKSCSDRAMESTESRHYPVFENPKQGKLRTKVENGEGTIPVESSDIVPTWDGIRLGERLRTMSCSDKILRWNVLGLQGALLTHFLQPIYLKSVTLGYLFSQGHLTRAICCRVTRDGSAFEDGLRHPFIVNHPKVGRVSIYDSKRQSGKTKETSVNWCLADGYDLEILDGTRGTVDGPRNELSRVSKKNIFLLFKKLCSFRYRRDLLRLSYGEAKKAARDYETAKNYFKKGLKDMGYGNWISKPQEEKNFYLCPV
UniProt P57764: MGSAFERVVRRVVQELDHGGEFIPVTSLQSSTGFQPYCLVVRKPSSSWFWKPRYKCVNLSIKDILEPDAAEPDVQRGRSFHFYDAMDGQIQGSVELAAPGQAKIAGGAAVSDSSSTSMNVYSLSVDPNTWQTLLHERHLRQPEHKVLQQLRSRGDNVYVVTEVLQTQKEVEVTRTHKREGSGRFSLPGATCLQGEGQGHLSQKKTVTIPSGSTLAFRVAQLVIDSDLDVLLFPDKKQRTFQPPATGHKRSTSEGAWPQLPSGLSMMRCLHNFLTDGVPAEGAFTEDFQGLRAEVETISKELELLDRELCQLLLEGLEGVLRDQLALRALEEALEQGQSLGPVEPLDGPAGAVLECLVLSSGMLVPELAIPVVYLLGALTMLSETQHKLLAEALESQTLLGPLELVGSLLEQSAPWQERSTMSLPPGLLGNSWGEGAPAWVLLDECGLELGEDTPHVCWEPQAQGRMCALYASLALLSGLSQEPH
UniProt P55081: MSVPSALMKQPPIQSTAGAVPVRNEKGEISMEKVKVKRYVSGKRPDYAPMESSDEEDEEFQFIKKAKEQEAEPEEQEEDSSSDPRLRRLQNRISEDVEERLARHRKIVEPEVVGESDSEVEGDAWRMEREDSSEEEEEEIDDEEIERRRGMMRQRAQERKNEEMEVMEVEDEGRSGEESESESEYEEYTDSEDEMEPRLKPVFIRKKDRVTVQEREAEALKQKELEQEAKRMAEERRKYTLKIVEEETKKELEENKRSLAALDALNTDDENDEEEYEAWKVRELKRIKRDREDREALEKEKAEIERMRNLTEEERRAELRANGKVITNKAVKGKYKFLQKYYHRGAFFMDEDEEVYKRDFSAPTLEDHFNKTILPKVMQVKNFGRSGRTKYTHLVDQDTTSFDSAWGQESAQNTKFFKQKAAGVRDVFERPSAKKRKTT
UniProt P55212: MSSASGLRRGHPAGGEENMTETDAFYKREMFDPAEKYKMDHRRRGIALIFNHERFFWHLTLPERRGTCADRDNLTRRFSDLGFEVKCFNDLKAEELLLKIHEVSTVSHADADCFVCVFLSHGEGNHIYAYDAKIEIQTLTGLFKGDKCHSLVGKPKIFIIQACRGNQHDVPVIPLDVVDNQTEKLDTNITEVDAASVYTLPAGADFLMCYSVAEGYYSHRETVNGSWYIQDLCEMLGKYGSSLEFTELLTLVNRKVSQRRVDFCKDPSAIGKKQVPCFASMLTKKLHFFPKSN

Compound: CCc1cnccc1C(=O)Nc1cc2c(cc1F)NC(=O)CC2
Assay: melting temperature shift (DMSO Tm minus MBE1-treated Tm) in cellular thermal proteome profiling; higher = less thermal stabilization by MBE1 (negative = stabilized by MBE1)
Details: A375; MBE1 concentration: 100 nM

| Target | melting temperature shift [°C] |
| --- | --- |
| RPL38 (UniProt P63173) | -1.57 |
| CSNK2B (UniProt P67870) | -2.15 |
| UniProt P54274 | 0.177 |
| NDUFA8 (UniProt P51970) | -1.58 |
| YBX1 (UniProt P67809) | -1.24 |

Same assay, conditions: A375; MBE1 concentration: 1 uM

| Target | melting temperature shift [°C] |
| --- | --- |
| HK2 (UniProt P52789) | -0.205 |
| NAGLU (UniProt P54802) | -0.514 |
| PPP2CA (UniProt P67775) | -0.235 |
| YPEL5 (UniProt P62699) | 0.0977 |
| RRAS2 (UniProt P62070) | 1.03 |
| HIST1H4A (UniProt P62805) | 2.28 |
| UniProt P63172 | 1.42 |
| NEK4 (UniProt P51957) | 0.0977 |
| RPS3A (UniProt P61247) | 0.122 |
| KIF11 (UniProt P52732) | -0.598 |
| UniProt P68133 | 20.3 |
| UniProt P63027 | -1.92 |
| RACK1 (UniProt P63244) | -0.653 |
| AP2S1 (UniProt P53680) | 0.427 |
| UBE2G1 (UniProt P62253) | -0.221 |
| USP14 (UniProt P54578) | 0.165 |
| HNRNPA3 (UniProt P51991) | -0.543 |
| PGD (UniProt P52209) | 0.0805 |
| ZNF143 (UniProt P52747) | -0.745 |

| Target | melting temperature shift [°C] |
| --- | --- |
| ATXN3 (UniProt P54252) | -1.24 |
| SNRPF (UniProt P62306) | 1.58 |
| PPP4C (UniProt P60510) | 0.201 |
| RPS4X (UniProt P62701) | 0.503 |
| UniProt P56645 | 0.55 |
| UniProt P61803 | 0.458 |
| ADAR (UniProt P55265) | -0.372 |
| GSDMD (UniProt P57764) | -1.66 |
| RPL27 (UniProt P61353) | 0.0872 |
| UBE2H (UniProt P62256) | 0.372 |
| PSMC6 (UniProt P62333) | 1.21 |
| MFAP1 (UniProt P55081) | -4.19 |
| CASP6 (UniProt P55212) | 3.11 |
| RPL38 (UniProt P63173) | 2.38 |
| CSNK2B (UniProt P67870) | -0.871 |
| UniProt P54274 | -2.29 |
| NDUFA8 (UniProt P51970) | -0.563 |
| YBX1 (UniProt P67809) | -0.199 |
